Results reported in patent US20100330094A1.
These are yes or no findings as the source states them, for the method shown.

Key:
Assay in all cases: capture ELISA: NI-0801 coated, concentration range of NusA fusion protein, revealed with anti-NusA antibody
[1] = molecular target: cyMIG (cynomolgus (prefix cy, as in cyIP-10))
[2] = molecular target: huRantes (human)
[3] = molecular target: huMIPa (human)
[4] = molecular target: huMIPb (human)
[5] = molecular target: moRantes (mouse (prefix mo, as in moIP-10))
[6] = molecular target: cyRantes (cynomolgus (prefix cy, as in cyIP-10))

Measured: binding

B1: NI-0801, IgG1 format (antibody, V domains shown)
VH: QVQLVESGGGVVQPGRSLRLSCAASGFTFSNSGIHWVRQAPGKGLEWVAVISYDGSNKYYADSVKGRFTISRDNSKNTLYLQMNSLRAEDTAVYYCARLRDNAEYTDYWGQGTLVTVSS
VL: NFMLTQPHSVSESPGKTVTISCTGSGGSIASNYVQWYQQRPGSSPTTVIYEDNQRPSGVPDRFSGSIDSSSNSASLTISGLKTEDEADYYCQSYDPLPVWVFGGGTKLTVLG
no binding (tested: about 2e-7 M): all assays above
